Test results as given in paper PMC10958042.
Residue numbers refer to the chain shown, from its start. No constants are given. Whether binding was seen depends on the method and setting. In cells and extracts the contact can be indirect. Some results given as binding are weak or reduced against the parent protein; the word gives no strength. Tags and fused reporters may be left off the sequences shown.

T1: Protein A-ATGL L62K (human) (UniProt Q96AD5)
T1 sequence: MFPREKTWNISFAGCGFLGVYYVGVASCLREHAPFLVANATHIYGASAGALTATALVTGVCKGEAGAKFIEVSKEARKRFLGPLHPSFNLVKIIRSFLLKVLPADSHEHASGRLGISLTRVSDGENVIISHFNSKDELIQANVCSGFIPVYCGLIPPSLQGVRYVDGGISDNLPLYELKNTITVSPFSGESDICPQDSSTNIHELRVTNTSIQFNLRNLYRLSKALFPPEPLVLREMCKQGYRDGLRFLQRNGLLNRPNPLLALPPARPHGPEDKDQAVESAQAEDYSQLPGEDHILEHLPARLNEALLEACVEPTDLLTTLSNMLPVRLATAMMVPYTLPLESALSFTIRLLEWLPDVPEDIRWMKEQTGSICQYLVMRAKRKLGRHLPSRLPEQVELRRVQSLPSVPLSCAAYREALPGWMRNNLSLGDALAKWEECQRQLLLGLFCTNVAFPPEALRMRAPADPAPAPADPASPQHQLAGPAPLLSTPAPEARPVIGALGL

T2: Protein A-ATGL F348E (human) (UniProt Q96AD5)
T2 sequence: T1 sequence with K62L, F348E

T3: Protein A-ATGL L178A (human) (UniProt Q96AD5)
T3 sequence: T1 sequence with K62L, L178A

T4: Protein A-ATGL P86K (human) (UniProt Q96AD5)
T4 sequence: T1 sequence with K62L, P86K

B1: CGI-58 wild type, firefly-luciferase fusion (protein, UniProt Q8WTS1 1-349)
chain: MAAEEEEVDSADTGERSGWLTGWLPTWCPTSISHLKEAEEKMLKCVPCTYKKEPVRISNGNKIWTLKFSHNISNKTPLVLLHGFGGGLGLWALNFGDLCTNRPVYAFDLLGFGRSSRPRFDSDAEEVENQFVESIEEWRCALGLDKMILLGHNLGGFLAAAYSLKYPSRVNHLILVEPWGFPERPDLADQDRPIPVWIRALGAALTPFNPLAGLRIAGPFGLSLVQRLRPDFKRKYSSMFEDDTVTEYIYHCNVQTPSGETAFKNMTIPYGWAKRPMLQRIGKMHPDIPVSVIFGARSCIDGNSGTSIQSLRPHSYVKTIAILGAGHYVYADQPEEFNQKVKEICDTVD
B2: murine Plin5 wild type, firefly-luciferase fusion (protein, UniProt Q8BVZ1 1-463)
chain: MDQRGEDTTLAPHSRMSGDQTAQDPGSSLGELDQQNVVNRVVALPLVKATCTAVSSAYNSAKDRHPLLGSACRLAEHCVCSVTTCALDHAQPLLEHLQPQLATVNDLACRGLDKLEEKLPFLQQPSDMVVTSAKDTVAKSVTGMVDLAQRGRRWSGELRRSMSQAMDMVLGKSEKLVDRFLPMTEAELAVLAAEAEGPEVGTVEEQRQQQGYFVRLGSLSARLRHLAYEHSLGKLRQSKHRTQEMLAQLQETLELIQHMQRGASPSPTFHPPKTQELWGSWSPCLENGRSHSEVELETLALSRSLTLELQNAVDALAGCVRGLPPSAQAKVAEVQRSVDALQATFADAHCLGDVAPTALAEGRGSVARAHACVDEFLDLVLRAMPLPWLVGPFAPILVEQSEPLINLATCVDEVVGDPDPRWAHMDWPAQKRAWEAESADPGGQEAEPPRGQGKHTMMPELDF
B3: CIDEC wild type, firefly-luciferase fusion (protein, UniProt Q96AQ7 1-238)
chain: MEYAMKSLSLLYPKSLSRHVSVRTSVVTQQLLSEPSPKAPRARPCRVSTADRSVRKGIMAYSLEDLLLKVRDTLMLADKPFFLVLEEDGTTVETEEYFQALAGDTVFMVLQKGQKWQPPSEQGTRHPLSLSHKPAKKIDVARVTFDLYKLNPQDFIGCLNVKATFYDTYSLSYDLHCCGAKRIMKEAFRWALFSMQATGHVLLGTSCYLQQLLDATEEGQPPKGKASSLIPTCLKILQ
B4: murine Plin1 wild type, firefly-luciferase fusion (protein, UniProt Q8CGN5 1-517)
chain: MSMNKGPTLLDGDLPEQENVLQRVLQLPVVSGTCECFQKTYNSTKEAHPLVASVCNAYEKGVQGASNLAAWSMEPVVRRLSTQFTAANELACRGLDHLEEKIPALQYPPEKIASELKGTISTRLRSARNSISVPIASTSDKVLGATLAGCELALGMAKETAEYAANTRVGRLASGGADLALGSIEKVVEFLLPPDKESAPSSGRQRTQKAPKAKPSLVRRVSTLANTLSRHTMQTTAWALKQGHSLAMWIPGVAPLSSLAQWGASAAMQVVSRRQSEVRVPWLHNLAASQDESHDDQTDTEGEETDDEEEEEESEAEENVLREVTALPNPRGLLGGVVHTVQNTLRNTISAVTWAPAAVLGTVGRILHLTPAQAVSSTKGRAMSLSDALKGVTDNVVDTVVHYVPLPRLSLMEPESEFRDIDNPSAEAERKGSGARPASPESTPRPGQPRGSLRSVRGLSAPSCPGLDDKTEASARPGFLAMPREKPARRVSDSFFRPSVMEPILGRAQYSQLRKKS
B5: G0S2 wild type, firefly-luciferase fusion (protein, UniProt P27469 1-103)
chain: METVQELIPLAKEMMAQKRKGKMVKLYVLGSVLALFGVVLGLMETVCSPFTAARRLRDQEAAVAELQAALERQALQKQALQEKGKQQDTVLGGRALSNRQHAS

Target: T1, Protein A-ATGL L62K (human)
Assay: co-IP; LUMIER luminescence-based co-immunoprecipitation: Protein A-ATGL variant and firefly-luciferase partner co-expressed in HEK293T, SDS-free RIPA2 lysate precipitated in IgG-coated plates 2 h at 4 °C, luminescence read; log2 fold change against wild-type ATGL, two experiments in triplicate

binding, binds:
B1
B2
B3
B4

Target: T2, Protein A-ATGL F348E (human)
Assay: as above

binding, binds:
B2
B5
B3
B4

Target: T3, Protein A-ATGL L178A (human)
Assay: as above

binding, binds:
B1
B2
B5
B3

Target: T4, Protein A-ATGL P86K (human)
Assay: as above

binding, binds:
B1
B5
B3
B4
